# According to the supplement of paper PMC10849652:
# By UniProt entry, the sequences of proteins in these tests, tags left out. Where a name states a change or a piece, a line headed by the entry shows the natural chain unless it says otherwise.
# UniProt Q8TB92: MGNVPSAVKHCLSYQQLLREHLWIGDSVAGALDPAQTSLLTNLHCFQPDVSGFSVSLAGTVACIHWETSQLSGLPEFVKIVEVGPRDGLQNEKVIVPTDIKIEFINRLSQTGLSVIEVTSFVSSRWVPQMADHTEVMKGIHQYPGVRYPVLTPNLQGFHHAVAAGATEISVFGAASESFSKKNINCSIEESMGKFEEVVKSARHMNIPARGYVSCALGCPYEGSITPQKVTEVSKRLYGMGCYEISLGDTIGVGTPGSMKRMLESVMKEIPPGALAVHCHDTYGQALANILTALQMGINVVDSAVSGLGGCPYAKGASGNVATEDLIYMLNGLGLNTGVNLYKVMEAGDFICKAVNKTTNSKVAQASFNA
# UniProt Q9NSC5: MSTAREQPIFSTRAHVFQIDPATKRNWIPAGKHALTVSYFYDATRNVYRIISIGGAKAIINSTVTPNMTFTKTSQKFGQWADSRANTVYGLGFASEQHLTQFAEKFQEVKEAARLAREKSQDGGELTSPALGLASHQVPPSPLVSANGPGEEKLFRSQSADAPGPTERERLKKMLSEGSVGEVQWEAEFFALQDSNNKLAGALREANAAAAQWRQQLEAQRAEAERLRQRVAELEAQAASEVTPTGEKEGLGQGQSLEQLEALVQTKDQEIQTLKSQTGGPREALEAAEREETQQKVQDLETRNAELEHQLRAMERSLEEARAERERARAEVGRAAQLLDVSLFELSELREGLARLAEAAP
# UniProt Q9Y2F5: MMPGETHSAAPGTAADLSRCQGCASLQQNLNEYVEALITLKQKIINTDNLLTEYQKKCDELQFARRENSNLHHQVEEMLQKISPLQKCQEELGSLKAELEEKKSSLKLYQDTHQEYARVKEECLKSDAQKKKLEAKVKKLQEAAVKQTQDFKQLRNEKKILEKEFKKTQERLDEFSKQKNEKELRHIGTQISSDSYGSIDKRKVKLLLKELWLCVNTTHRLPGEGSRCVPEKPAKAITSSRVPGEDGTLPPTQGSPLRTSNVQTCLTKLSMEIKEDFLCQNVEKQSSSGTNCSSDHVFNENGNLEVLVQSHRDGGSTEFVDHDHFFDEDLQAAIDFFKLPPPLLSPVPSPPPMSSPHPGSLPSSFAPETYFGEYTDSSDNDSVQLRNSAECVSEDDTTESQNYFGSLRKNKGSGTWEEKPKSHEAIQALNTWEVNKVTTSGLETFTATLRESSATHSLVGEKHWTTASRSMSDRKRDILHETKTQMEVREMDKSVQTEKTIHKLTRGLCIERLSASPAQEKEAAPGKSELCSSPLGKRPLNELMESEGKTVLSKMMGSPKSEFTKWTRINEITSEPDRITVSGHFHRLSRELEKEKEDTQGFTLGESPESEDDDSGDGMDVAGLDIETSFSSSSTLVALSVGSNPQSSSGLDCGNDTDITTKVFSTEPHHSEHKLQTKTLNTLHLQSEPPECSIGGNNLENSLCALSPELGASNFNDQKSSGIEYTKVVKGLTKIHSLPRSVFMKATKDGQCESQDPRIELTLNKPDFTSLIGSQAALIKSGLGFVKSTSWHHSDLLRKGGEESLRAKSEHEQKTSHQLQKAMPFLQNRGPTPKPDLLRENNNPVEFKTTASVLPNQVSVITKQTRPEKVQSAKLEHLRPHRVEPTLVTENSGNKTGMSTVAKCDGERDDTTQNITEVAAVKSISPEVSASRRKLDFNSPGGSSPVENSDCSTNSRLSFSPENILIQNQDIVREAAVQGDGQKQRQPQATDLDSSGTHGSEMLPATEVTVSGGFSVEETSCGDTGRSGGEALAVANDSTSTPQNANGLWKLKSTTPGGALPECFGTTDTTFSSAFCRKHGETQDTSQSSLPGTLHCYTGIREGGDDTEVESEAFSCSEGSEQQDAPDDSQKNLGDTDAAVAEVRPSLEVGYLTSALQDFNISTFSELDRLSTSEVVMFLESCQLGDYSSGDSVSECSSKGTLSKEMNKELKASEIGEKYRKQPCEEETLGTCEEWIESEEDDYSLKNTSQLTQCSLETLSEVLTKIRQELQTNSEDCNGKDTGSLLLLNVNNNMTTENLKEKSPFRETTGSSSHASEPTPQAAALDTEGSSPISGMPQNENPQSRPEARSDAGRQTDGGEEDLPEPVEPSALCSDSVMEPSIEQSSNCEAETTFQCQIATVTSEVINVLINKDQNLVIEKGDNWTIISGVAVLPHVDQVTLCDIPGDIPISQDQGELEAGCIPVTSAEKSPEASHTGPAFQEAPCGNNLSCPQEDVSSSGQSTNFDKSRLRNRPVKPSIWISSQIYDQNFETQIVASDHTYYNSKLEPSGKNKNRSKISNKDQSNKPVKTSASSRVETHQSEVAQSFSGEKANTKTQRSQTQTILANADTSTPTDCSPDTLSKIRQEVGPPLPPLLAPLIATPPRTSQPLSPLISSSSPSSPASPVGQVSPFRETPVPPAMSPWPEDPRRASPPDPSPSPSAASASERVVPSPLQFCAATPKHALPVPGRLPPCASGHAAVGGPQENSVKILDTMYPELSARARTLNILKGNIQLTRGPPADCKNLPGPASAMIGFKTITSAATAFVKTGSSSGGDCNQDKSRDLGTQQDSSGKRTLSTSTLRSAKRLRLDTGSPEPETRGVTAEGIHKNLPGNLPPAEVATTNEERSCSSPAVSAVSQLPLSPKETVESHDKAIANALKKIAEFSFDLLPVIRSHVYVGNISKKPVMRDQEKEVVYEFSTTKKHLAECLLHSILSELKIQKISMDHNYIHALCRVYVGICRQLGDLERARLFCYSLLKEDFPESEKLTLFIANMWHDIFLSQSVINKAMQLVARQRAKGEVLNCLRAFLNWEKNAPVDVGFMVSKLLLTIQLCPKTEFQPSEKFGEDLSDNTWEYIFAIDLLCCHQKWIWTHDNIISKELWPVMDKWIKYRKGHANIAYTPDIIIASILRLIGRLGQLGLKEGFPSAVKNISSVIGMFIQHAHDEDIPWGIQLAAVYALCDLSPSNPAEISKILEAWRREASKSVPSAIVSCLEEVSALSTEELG
# UniProt Q58FF6, whole entry, looked up: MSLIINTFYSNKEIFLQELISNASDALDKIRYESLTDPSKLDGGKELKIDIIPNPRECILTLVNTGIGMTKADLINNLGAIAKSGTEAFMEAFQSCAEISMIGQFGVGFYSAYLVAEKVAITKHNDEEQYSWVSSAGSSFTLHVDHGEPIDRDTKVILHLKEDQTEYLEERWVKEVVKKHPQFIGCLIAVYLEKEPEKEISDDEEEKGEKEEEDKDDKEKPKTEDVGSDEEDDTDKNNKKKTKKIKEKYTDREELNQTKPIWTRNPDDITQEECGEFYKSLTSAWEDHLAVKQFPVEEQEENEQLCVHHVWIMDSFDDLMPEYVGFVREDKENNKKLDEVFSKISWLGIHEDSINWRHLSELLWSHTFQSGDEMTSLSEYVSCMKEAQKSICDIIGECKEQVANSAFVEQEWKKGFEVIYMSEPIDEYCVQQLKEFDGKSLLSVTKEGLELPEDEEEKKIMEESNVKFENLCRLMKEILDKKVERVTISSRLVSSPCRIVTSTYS
# UniProt Q00613: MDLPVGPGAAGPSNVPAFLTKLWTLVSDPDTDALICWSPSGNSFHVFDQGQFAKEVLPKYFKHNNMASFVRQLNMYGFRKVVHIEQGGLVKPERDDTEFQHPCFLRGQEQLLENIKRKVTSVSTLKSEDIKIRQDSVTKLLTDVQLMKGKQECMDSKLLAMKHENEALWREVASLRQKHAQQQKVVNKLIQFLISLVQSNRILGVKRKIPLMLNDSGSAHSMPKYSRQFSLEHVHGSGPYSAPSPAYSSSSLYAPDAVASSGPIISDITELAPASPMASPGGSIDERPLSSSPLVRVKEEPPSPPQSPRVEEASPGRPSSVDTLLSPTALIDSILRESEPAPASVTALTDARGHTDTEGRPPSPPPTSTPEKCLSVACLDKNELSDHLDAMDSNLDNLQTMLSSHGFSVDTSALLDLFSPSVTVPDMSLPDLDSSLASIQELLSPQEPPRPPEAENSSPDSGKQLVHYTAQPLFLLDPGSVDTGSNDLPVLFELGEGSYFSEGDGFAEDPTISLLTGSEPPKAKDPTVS
# UniProt Q05084: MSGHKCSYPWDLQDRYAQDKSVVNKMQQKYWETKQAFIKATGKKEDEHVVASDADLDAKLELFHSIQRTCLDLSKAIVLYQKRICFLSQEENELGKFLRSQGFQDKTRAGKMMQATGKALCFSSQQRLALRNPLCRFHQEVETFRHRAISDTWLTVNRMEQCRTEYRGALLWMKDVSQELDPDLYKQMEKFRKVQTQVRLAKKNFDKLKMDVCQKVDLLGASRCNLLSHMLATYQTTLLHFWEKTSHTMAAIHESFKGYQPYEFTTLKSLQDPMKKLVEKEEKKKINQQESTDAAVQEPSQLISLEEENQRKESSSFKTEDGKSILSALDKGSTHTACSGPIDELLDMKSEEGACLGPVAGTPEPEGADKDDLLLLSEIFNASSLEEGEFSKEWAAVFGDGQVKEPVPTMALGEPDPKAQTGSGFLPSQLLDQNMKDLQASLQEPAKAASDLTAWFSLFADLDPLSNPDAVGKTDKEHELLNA
# UniProt Q9NQG7: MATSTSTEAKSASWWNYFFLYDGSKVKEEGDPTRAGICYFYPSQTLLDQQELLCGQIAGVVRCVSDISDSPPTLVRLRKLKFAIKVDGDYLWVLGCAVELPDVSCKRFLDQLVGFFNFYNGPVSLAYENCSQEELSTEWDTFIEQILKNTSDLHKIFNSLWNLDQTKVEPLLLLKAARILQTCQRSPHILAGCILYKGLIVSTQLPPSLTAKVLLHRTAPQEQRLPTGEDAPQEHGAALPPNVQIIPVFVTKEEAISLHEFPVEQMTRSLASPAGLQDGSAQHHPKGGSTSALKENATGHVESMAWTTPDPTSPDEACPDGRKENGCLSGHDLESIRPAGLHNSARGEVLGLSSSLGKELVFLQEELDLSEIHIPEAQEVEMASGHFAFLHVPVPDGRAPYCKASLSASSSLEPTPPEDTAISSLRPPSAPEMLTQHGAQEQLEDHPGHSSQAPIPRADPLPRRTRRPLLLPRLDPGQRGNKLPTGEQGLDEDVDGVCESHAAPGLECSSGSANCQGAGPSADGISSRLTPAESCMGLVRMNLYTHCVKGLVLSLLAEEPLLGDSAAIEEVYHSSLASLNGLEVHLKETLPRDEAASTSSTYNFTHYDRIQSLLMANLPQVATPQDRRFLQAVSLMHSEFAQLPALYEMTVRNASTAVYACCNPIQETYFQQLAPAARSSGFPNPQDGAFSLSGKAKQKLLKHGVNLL
# UniProt Q9NWT6: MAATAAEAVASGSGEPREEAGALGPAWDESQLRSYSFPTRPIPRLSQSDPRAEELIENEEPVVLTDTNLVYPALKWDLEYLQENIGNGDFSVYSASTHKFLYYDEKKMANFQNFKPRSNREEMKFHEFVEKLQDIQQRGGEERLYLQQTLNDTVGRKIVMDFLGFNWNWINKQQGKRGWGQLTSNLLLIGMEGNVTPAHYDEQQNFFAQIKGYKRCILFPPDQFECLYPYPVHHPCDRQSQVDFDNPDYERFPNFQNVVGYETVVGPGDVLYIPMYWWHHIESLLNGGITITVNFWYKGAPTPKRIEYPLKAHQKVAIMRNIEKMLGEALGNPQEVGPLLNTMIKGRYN
# UniProt P41134: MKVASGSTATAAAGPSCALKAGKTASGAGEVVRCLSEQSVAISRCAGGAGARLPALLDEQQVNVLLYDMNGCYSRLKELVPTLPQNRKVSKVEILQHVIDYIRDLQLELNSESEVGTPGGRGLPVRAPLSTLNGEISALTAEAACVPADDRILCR
# The other results are listed elsewhere or left out.
# Compound: CC1=C(C=C(C=C1)NC(=O)C2=CC(=CC=C2)C(C)(C)C#N)NC3=CC4=C(C=C3)N=CN(C4=O)C
# Experiment: log2 fold change, soluble protein after heating vs DMSO (PISA); higher = thermal stabilisation; K562 cells, 10 uM, 30 min; active = over 0.2 and 3.5 SD of the protein, either way, in both replicates (recomputed)
# In short: (§1)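 K562 cells at 2×10^6 cells/mL were given 10 μM compound for 30 min. Aliquots then went through 3 min of heating across 48°C-58°C, were pooled, and were extracted in PBS with 0.5% NP-40 at 4°C, and the supernatant after 21,000xg for 90 min was quantified by TMTpro 16plex LC-MS/MS with channel sums equalised. Thermal stability relative to control samples, from duplicates, is given as log2 fold change.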
row,Target,log2 fold change
1,HMGCLL1 (UniProt Q8TB92),inactive: -0.033
2,HOMER3 (UniProt Q9NSC5),inactive: -0.162
3,"HUWE1, A0A087X1S3",inactive: 0.024
4,ICE1 (UniProt Q9Y2F5),inactive: -0.142
5,HUWE1 isoform 2 (UniProt Q7Z6Z7),inactive: 0.076
6,HMBS (UniProt F5H226),inactive: -0.02
7,HSP90AB4P (UniProt Q58FF6),inactive: -0.043
8,"HYOU1, A0A494C039",inactive: -0.024
9,HSF1 (UniProt Q00613),inactive: -0.031
10,HTD2 (UniProt P86397),inactive: 0.007

# Compound: CC1=C(C=C(C=C1)NC(=O)C2=CC(=CC=C2)N(C)C)NC(=O)C3=CC=C(C=C3)O
# Experiment: as above
# In short: as §1
row,Target,log2 fold change
1,HIST2H2AA3 (UniProt Q6FI13),inactive: -0.032
2,ICA1 isoform 2 (UniProt Q05084),inactive: 0.039
3,HPS4 isoform 4 (UniProt Q9NQG7),inactive: 0.302
4,HIF1AN (UniProt Q9NWT6),inactive: 0.014
5,ID1 (UniProt P41134),inactive: -0.121
